Each structure is given as a SMILES string. Counter-ions that a name gives are not always drawn. ± gives the standard deviation of the averaged measurements. This is one part of the list. Values are raw readings; no control value is given beside them.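 One yeast strain harboring four plasmids, each bearing a fluorescent protein plus an amino-acid or uracil synthesis gene, founds the community. Random loss of plasmids produces mixed prototroph and auxotroph subpopulations. Cells were fixed, then counted with automated confocal fluorescence imaging, with DMSO-treated wells as vehicle reference.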

The assay relates to Saccharomyces cerevisiae BY4741 SeMeCo community. Nature of the assay: imaged cell count per well (cells); higher = more cells. To be noted: 10 µM; 24 h; SM minimal medium. As for the experimental part: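 Same SeMeCo high-content imaging drug screen: Selleck FDA-approved drugs at 10 µM, 24 h in SM medium, 384-well plates, 3 replicates.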
Regarding `C=C[C@]1(C)C[C@@H](OC(=O)CS[C@@H]2C[C@H]3CC[C@@H](C2)N3C)[C@]2(C)[C@H](C)CC[C@]3(CCC(=O)[C@H]32)[C@@H](C)[C@@H]1O` [Retapamulin], the “imaged cell count per well” value was determined as 24900 ± 430. For the molecule `COC(=O)C1=C(C)NC(C)=C(C(=O)OCC(C)C)C1c1ccccc1[N+](=O)[O-]` (centres undefined) [Nisoldipine], the “imaged cell count per well” value amounted to 22300 ± 960. Under `C[C@H]1O[C@@H](O[C@H]2[C@@H](O)C[C@H](O[C@H]3[C@@H](O)C[C@H](O[C@H]4CC[C@@]5(C)[C@H](CC[C@@H]6[C@@H]5C[C@@H](O)[C@]5(C)[C@@H](C7=CC(=O)OC7)CC[C@]65O)C4)O[C@@H]3C)O[C@@H]2C)C[C@H](O)[C@@H]1O` [Digoxin] stands 25700 ± 8700; under `O=c1[nH]c(=O)n([C@H]2C[C@H](O)[C@@H](CO)O2)cc1/C=C/Br` [Brivudine], 28000 ± 4500; under `Cc1c(OCC(F)(F)F)ccnc1C[S@@+]([O-])c1nc2ccccc2[nH]1` [Dexlansoprazole], 30100 ± 3100. As to `CCN[C@@H]1C[C@H](N)[C@@H](O[C@H]2OC(CN)=CC[C@H]2N)[C@H](O)[C@H]1O[C@H]1OC[C@](C)(O)[C@H](NC)[C@H]1O` [Netilmicin Sulfate], the “imaged cell count per well” value amounted to 20100 ± 4600. For `C#C[C@]1(O)CC[C@H]2[C@@H]3CCc4cc(OC)ccc4[C@H]3CC[C@@]21C` [Mestranol] the value was 26600 ± 3700; for `CCN(CC)C(=O)N1CCN(C)CC1` [Diethylcarbamazine citrate], 22100 ± 3400; for `CN(C)CCc1c[nH]c2ccc(C[C@H]3COC(=O)N3)cc12` [Zolmitriptan], 22600 ± 980.

`CC(=O)O[C@H]1C[C@@H]2CC[C@@H]3[C@H](CC[C@@]4(C)[C@H]3C[C@H]([N+]3(C)CCCCC3)[C@@H]4OC(C)=O)[C@@]2(C)C[C@@H]1N1CCCCC1` [Vecuronium Bromide]: the “imaged cell count per well” value was determined as 24100 ± 8200.

In the case of `COC(=O)Nc1nc2cc(C(=O)c3ccccc3)ccc2[nH]1` [Mebendazole], the “imaged cell count per well” value is 17900 ± 6100. Under `COc1ccc2cc(CCC(C)=O)ccc2c1` [Nabumetone] stands 26200 ± 1400; under `CCC1=C(C)CN(C(=O)NCCc2ccc(S(=O)(=O)NC(=O)N[C@H]3CC[C@H](C)CC3)cc2)C1=O` [Glimepiride], 23200 ± 3600; under `C#C[C@]1(O)CC[C@H]2[C@@H]3CCC4=Cc5oncc5C[C@]4(C)[C@H]3CC[C@@]21C` [Danazol], 29300 ± 5100. Under `CCCN(CCC)CCc1cccc2c1CC(=O)N2` [Ropinirole HCl] stands 25100 ± 6300; under `COCCCC/C(=N\OCCN)c1ccc(C(F)(F)F)cc1` [Fluvoxamine maleate], 26700 ± 2700. `CO/N=C(\C(=O)N[C@@H]1C(=O)N2C(C(=O)O)=C(CSc3nc(C)c(CC(=O)O)s3)CS[C@H]12)c1csc(N)n1` [Cefodizime Sodium]: the “imaged cell count per well” value was determined as 27500 ± 4900. Take `CN1CCN(C2=Nc3ccccc3Oc3ccc(Cl)cc32)CC1` [Loxapine Succinate]: the “imaged cell count per well” value was determined as 21000 ± 10000. Under `CC[C@H](C)C[C@H](C)CCCCCCCCC(=O)N[C@H]1C[C@@H](O)[C@@H](NCCN)NC(=O)[C@@H]2[C@@H](O)CCN2C(=O)[C@H]([C@H](O)CCN)NC(=O)[C@H]([C@H](O)[C@@H](O)c2ccc(O)cc2)NC(=O)[C@@H]2C[C@@H](O)CN2C(=O)[C@H]([C@@H](C)O)NC1=O` [Caspofungin Acetate] stands 2330 ± 370; under `CC[N+](C)(C)c1cccc(O)c1` [Edrophonium chloride], 24600 ± 1600; under `COc1cccc2c1C(=O)c1c(O)c3c(c(O)c1C2=O)CC(O)(C(=O)CO)CC3OC1CC(N)C(O)C(C)O1` (centres undefined) [Doxorubicin (Adriamycin) HCl], 11400 ± 4000. Under `CCn1cc(C(=O)O)c(=O)c2cnc(N3CCNCC3)nc21` [Pipemidic acid] stands 23500 ± 6900; under `Cn1c(=O)c2[nH]cnc2n(C)c1=O` [Aminophylline], 22800 ± 6400; under `CCOc1ccc(NC(C)=O)cc1` [Phenacetin], 18200 ± 1700.

In the case of `CC#C[C@]1(O)CC[C@H]2[C@@H]3CCC4=CC(=O)CCC4=C3[C@@H](c3ccc(N(C)C)cc3)C[C@@]21C` [Mifepristone], the “imaged cell count per well” value came out at 29500 ± 6000. Under `CCCN1CCCC[C@H]1C(=O)Nc1c(C)cccc1C` [Ropivacaine HCl] stands 18700 ± 5000; under `COc1ccc(C(Cl)=C(c2ccc(OC)cc2)c2ccc(OC)cc2)cc1` [Chlorotrianisene], 15000 ± 4300; under `Nc1ccc2cc3ccc(N)cc3nc2c1` [Proflavine], 30600 ± 910. For `Nc1ccc(S(=O)(=O)Nc2ccnn2-c2ccccc2)cc1` [Sulfaphenazole] the value was 19200 ± 4400.

These data come from the supplement of paper PMC8975748.
